# Counter-ions that a name gives are not always drawn. The list shows a part of the results. The numbers are fractions of the control, whatever unit the source prints. Most values lie at the level of the controls, where differences are scatter.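 MIN6 is a mouse insulinoma beta-cell line that stably carries a lentiviral reporter in which the Pdx1 and Ins1 promoters each drive a nucleus-targeted fluorescent protein; cells were counted by automated imaging with a Hoechst nuclear stain. In the screen, a drug was a possible hit when its Ins1 promoter readout lay beyond two median absolute deviations from the DMSO controls while Pdx1 activity stayed near normal.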
# System: MIN6
# Assay: % Pdx1+ Ins1+ (double-positive, mature) cells relative to DMSO control (fold of DMSO control); higher = more mature Ins1 promoter-active cells
# Conditions: 8.5 µM; 48 h; glucose 5 mM
row,Compound,% Pdx1+ Ins1+
1,CNCCCC1c2ccccc2C=Cc2ccccc21 [Protriptyline hydrochloride],0.763
2,C[N+]1(CCCCC[N+]2(C)CCCC2)CCCC1 [Pentolinium bitartrate],1.07
3,COc1ccc(CCN(C)CCCC(C#N)(c2ccc(OC)c(OC)c2)C(C)C)cc1OC (configuration not stated) [Verapamyl hydrochloride],1.08
4,CCCc1cc(=O)[nH]c(=S)[nH]1 [Propylthiouracil],0.983
5,Fc1ccc(C(c2ccc(F)cc2)N2CCN(C/C=C/c3ccccc3)CC2)cc1 [Flunarizine dihydrochloride],0.911
6,N=C(N)c1ccc(OCCCCCOc2ccc(C(=N)N)cc2)cc1 [Pentamidine isethionate],0.756
7,CC(=O)Nc1cc2ccccc2oc1=O [3-Acetamidocoumarin],0.853
8,COc1cccc2c1C(=O)c1c(O)c3c(c(O)c1C2=O)C[C@@](O)(C(=O)CO)C[C@@H]3O[C@H]1C[C@H](N)[C@H](O)[C@H](C)O1 [Doxorubicin hydrochloride],0.996
9,CC1(C)S[C@@H]2[C@H](NC(=O)[C@H](N)c3ccc(O)cc3)C(=O)N2[C@H]1C(=O)O [Amoxicillin],1.03
10,CN[C@@H]1[C@H](O[C@H]2[C@H](O[C@H]3[C@H](O)[C@@H](O)[C@H](N=C(N)N)[C@@H](O)[C@@H]3N=C(N)N)O[C@@H](C)[C@]2(O)C=O)O[C@@H](CO)[C@H](O)[C@H]1O [Streptomycin sulfate],0.979
11,COC(=O)Nc1nc2cc(C(=O)c3ccccc3)ccc2[nH]1 [Mebendazole],1.16
12,CC1(C)S[C@@H]2[C@H](NC(=O)[C@H](NC(=O)N3CCNC3=O)c3ccccc3)C(=O)N2[C@H]1C(=O)O [Azlocillin sodium salt],1.12
13,Clc1cnccn1 [2-Chloropyrazine],0.927
14,Cc1cc2c(cc1S(N)(=O)=O)S(=O)(=O)CCC2 [Meticrane],1.07
15,CN(C)/N=N/c1[nH]cnc1C(N)=O [Dacarbazine],0.947
16,CC[N+](C)(C)Cc1ccccc1Br [Bretylium tosylate],0.864
17,C[N+](C)(C)CCCCCC[N+](C)(C)C [Hexamethonium dibromide dihydrate],1.17
18,CN1C(C)(C)CCCC1(C)C [Pempidine tartrate],0.869
19,Cc1onc(-c2c(Cl)cccc2Cl)c1C(=O)N[C@@H]1C(=O)N2[C@@H]1SC(C)(C)[C@@H]2C(=O)O [Dicloxacillin sodium salt],1.07
20,CC(CCc1ccccc1)NCC(O)c1ccc(O)c(C(N)=O)c1 (configuration not stated) [Labetalol hydrochloride],1.07
21,O=C(O)c1cccnc1Nc1cccc(C(F)(F)F)c1 [Niflumic acid],0.98
22,Cc1oncc1C(=O)Nc1ccc(C(F)(F)F)cc1 [Leflunomide],0.973
23,COc1ccc(C(Cl)=C(c2ccc(OC)cc2)c2ccc(OC)cc2)cc1 [Chlorotrianisene],1.03

row,Compound,% Pdx1+ Ins1+
1,C[N+]1(C)C[C@H](O)C[C@H]1C(=O)[O-] [Betonicine],0.897
2,Cc1cc(C(C)(C)C)c(O)c(C)c1CC1=NCCN1 [Oxymetazoline hydrochloride],0.908
3,CN(C)CCCN1c2ccccc2Sc2ccccc21 [Promazine hydrochloride],0.915
4,NS(=O)(=O)c1cc(C(=O)O)cc(N2CCCC2)c1Oc1ccccc1 [Piretanide],0.609
5,COc1ccc([C@@H]2CC(=O)c3c(O)cc(O[C@@H]4O[C@H](CO[C@@H]5O[C@@H](C)[C@H](O)[C@@H](O)[C@H]5O)[C@@H](O)[C@H](O)[C@H]4O)cc3O2)cc1O [Hesperidin],1.01
6,C[C@]1(OC(=O)/C=C/c2ccccc2)C[C@@H](O)[C@]2(O)C=CO[C@@H](O[C@@H]3O[C@H](CO)[C@@H](O)[C@H](O)[C@H]3O)[C@@H]21 [Harpagoside],1.01
7,CSc1ccc2c(c1)C(N1CCN(C)CC1)Cc1ccccc1S2 (configuration not stated) [Methiothepin maleate],0.797
8,COC(=O)[C@H]1[C@H]2C[C@H]3c4[nH]c5ccccc5c4CCN3C[C@@H]2CC[C@@H]1O [Corynanthine hydrochloride],1.01
9,O=C(C1CCCCC1)N1CC(=O)N2CCc3ccccc3C2C1 (configuration not stated) [Praziquantel],1.06
10,C(=C\c1ccccc1)/CN1CCN(C(c2ccccc2)c2ccccc2)CC1 [Cinnarizine],1.07
11,COc1ccc2c(c1)c(CC(=O)O)c(C)n2C(=O)c1ccc(Cl)cc1 [Indomethacin],1.09
12,Nc1nc2ccc(OC(F)(F)F)cc2s1 [Riluzole hydrochloride],0.9
13,CC(C)(C)NCC(O)COc1cccc2c1CCC(=O)N2 (configuration not stated) [Carteolol hydrochloride],0.918
14,C=C1c2c(Cl)ccc(O)c2C(=O)C2=C(O)[C@]3(O)C(=O)C(C(N)=O)=C(O)[C@@H](N(C)C)[C@@H]3[C@@H](O)[C@H]12.O=C(O)c1cc(S(=O)(=O)O)ccc1O [Meclocycline sulfosalicylate],0.825
15,CCOC(=O)O[C@]1(C(=O)COC(=O)CC)CC[C@H]2[C@@H]3CCC4=CC(=O)C=C[C@]4(C)[C@H]3[C@@H](O)C[C@@]21C [Prednicarbate],0.904
16,COc1ccc2c(c1OC)C(=O)O[C@@H]2[C@H]1c2c(cc3c(c2OC)OCO3)CCN1C [Noscapine],0.948
17,CC[C@H](C)[C@H](N)C1=N[C@H](C(=O)N[C@@H](CC(C)C)C(=O)N[C@H](CCC(=O)O)C(=O)N[C@H](C(=O)N[C@H]2CCCCNC(=O)[C@H](CC(N)=O)NC(=O)[C@@H](CC(=O)O)NC(=O)[C@H](Cc3cnc[nH]3)NC(=O)[C@@H](Cc3ccccc3)NC(=O)[C@H]([C@@H](C)CC)NC(=O)[C@@H](CCCN)NC2=O)[C@@H](C)CC)CS1 [Bacitracin],0.993
18,CN1CCN(CCCN2c3ccccc3Sc3ccc(C(F)(F)F)cc32)CC1 [Trifluoperazine dihydrochloride],1.1
19,COc1ccc(OC)c(C(O)CNC(=O)CN)c1 (configuration not stated) [Midodrine hydrochloride],1.11
20,CN(C(=O)C(Cl)Cl)c1ccc(OC(=O)c2ccco2)cc1 [Diloxanide furoate],0.983
21,Nc1ccn([C@H]2CC[C@@H](CO)O2)c(=O)n1 [Zalcitabine],0.878
22,Oc1c(I)cc(Cl)c2cccnc12 [Clioquinol],1.03
23,CN(C)CCOC(C)(c1ccccc1)c1ccccn1 (configuration not stated) [Doxylamine succinate],1.1

row,Compound,% Pdx1+ Ins1+
1,CC(=O)c1ccc2c(c1)N(CCCN(C)C)c1ccccc1S2 [Acetopromazine maleate salt],0.829
2,CC(=O)[C@H]1CC[C@H]2[C@@H]3C=CC4=CC(=O)CC[C@@]4(C)[C@@H]3CC[C@]12C [Dydrogesterone],0.866
3,NC[C@@H]1O[C@H](O[C@H]2[C@@H](O)[C@H](O[C@@H]3[C@@H](O)[C@H](N)C[C@H](N)[C@H]3O[C@H]3O[C@H](CO)[C@@H](O)[C@H](O)[C@H]3N)O[C@@H]2CO)[C@H](N)[C@@H](O)[C@@H]1O [Paromomycin sulfate],1.06
4,COc1ccccc1OCC(O)CO (configuration not stated) [Guaifenesin],0.853
5,Cc1cccc(C)c1OCC(C)N (configuration not stated) [Mexiletine hydrochloride],1.14
6,Oc1ccc(/C=C/c2cc(O)cc(O)c2)cc1 [Resveratrol],0.768
7,Cc1c(N(C)C)c(=O)n(-c2ccccc2)n1C [Amidopyrine],1.11
8,CCCCc1cc2ccccc2c(OCCN(C)C)n1 [Dimethisoquin hydrochloride],0.87
9,Cc1cccc(C)c1NC(=O)C(C)N (configuration not stated) [Tocainide hydrochloride],0.964
10,CN(C)C(=O)C(CCN1CCC(O)(c2ccc(Cl)cc2)CC1)(c1ccccc1)c1ccccc1 [Loperamide hydrochloride],1.01
11,O=C(OCC(O)CO)c1ccccc1Nc1ccnc2cc(Cl)ccc12 (configuration not stated) [Glafenine hydrochloride],0.93
12,CC(C(=O)O)c1ccc(-c2ccccc2)c(F)c1 (configuration not stated) [Flurbiprofen],0.943
13,O=c1ccc2cc(O)c(O)cc2o1 [Esculetin],0.803
14,COc1cc([S+](C)[O-])ccc1-c1nc2cccnc2[nH]1 (configuration not stated) [Sulmazole],0.741
15,C[C@H]1O[C@@H](O[C@H]2[C@@H](O)C[C@H](O[C@H]3[C@@H](O)C[C@H](O[C@H]4CC[C@@]5(C)[C@H](CC[C@@H]6[C@@H]5C[C@@H](O)[C@]5(C)[C@@H](C7=CC(=O)OC7)CC[C@]65O)C4)O[C@@H]3C)O[C@@H]2C)C[C@H](O)[C@@H]1O [Digoxin],0.963
16,NS(=O)(=O)c1cc2c(cc1Cl)NC(C(Cl)Cl)NS2(=O)=O (configuration not stated) [Trichlormethiazide],1.03
17,CN[C@@H]1[C@H](O)[C@H](NC)[C@H]2O[C@@]3(O)C(=O)C[C@@H](C)O[C@H]3O[C@@H]2[C@H]1O [Spectinomycin dihydrochloride],1.11
18,Cc1onc(-c2ccccc2Cl)c1C(=O)N[C@@H]1C(=O)N2[C@@H]1SC(C)(C)[C@@H]2C(=O)O [Cloxacillin sodium salt],1.12
19,N[C@@H](C(=O)N[C@@H]1C(=O)N2C(C(=O)O)=C(Cl)CC[C@H]12)c1ccccc1 [Loracarbef],0.849
20,CN[C@@H]1[C@@H](O[C@H]2O[C@H](CO)[C@@H](N)[C@H](O)[C@H]2O)OC2C[C@@H](N)[C@@H](O[C@H]3[C@H](O)[C@@H](O)[C@H](N)C[C@@H]3N)OC2[C@@H]1O (some centres not stated) [Apramycin],0.975
21,Cc1c(-c2ccccc2)oc2c(C(=O)OCCN3CCCCC3)cccc2c1=O [Flavoxate hydrochloride],1.06

# An excerpt from above in order of number of heavy atoms, ascending:
row,Compound,% Pdx1+ Ins1+
9,Cc1cccc(C)c1NC(=O)C(C)N (configuration not stated) [Tocainide hydrochloride],0.964
23,CN(C)CCOC(C)(c1ccccc1)c1ccccn1 (configuration not stated) [Doxylamine succinate],1.1
10,C(=C\c1ccccc1)/CN1CCN(C(c2ccccc2)c2ccccc2)CC1 [Cinnarizine],1.07

# Reference: the supplement of paper PMC4807443
